Article PMC8814139
These are yes or no findings as the source states them, for the method shown. For some assays here: Binding seen in cells or lysates may run through a third protein. Some entries that bind do so weakly or less than the wild type. Each block holds one substance with its values, some of them ahead of it.

The chains behind the UniProt entries cited, without tags or fusion partners. Where a name states a change or a piece, a line headed by the entry shows the natural chain unless it says otherwise. A line that says so, or that is headed by a name, gives the form on record, which may keep a tag or linker. Residues count along the entry.
HA-Cdt 2-345 (O88566, residues 2-345): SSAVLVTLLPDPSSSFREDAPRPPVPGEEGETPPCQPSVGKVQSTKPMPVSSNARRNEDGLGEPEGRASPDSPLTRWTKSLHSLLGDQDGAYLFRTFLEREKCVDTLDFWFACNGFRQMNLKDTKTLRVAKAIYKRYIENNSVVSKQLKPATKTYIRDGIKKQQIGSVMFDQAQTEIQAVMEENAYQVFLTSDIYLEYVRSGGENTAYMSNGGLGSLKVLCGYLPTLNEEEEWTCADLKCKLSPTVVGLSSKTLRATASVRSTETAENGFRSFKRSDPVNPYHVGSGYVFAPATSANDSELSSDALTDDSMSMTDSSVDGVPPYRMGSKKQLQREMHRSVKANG
GST-Cdt 2-210 (O88566, residues 2-210): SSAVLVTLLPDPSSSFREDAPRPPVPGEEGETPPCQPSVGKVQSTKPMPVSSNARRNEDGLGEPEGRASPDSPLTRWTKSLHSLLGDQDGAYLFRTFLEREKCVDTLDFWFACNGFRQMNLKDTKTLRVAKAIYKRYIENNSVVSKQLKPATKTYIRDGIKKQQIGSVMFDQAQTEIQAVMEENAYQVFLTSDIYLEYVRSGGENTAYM
GST-RGS^Cdt (Conductin aa 67-210) (O88566, residues 67-210): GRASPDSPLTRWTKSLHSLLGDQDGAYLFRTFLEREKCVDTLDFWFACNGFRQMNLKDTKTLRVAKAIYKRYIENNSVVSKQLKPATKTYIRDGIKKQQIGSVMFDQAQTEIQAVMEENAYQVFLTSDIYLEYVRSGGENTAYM
GFP-RGS^Cdt (Conductin aa 71-211) (O88566, residues 71-211): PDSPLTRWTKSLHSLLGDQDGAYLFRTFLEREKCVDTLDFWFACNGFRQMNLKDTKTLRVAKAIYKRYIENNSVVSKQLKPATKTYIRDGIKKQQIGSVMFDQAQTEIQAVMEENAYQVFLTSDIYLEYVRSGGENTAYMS
GFP-Cdt 2–345 QVL (L99R Q188P V189S) (O88566, form named): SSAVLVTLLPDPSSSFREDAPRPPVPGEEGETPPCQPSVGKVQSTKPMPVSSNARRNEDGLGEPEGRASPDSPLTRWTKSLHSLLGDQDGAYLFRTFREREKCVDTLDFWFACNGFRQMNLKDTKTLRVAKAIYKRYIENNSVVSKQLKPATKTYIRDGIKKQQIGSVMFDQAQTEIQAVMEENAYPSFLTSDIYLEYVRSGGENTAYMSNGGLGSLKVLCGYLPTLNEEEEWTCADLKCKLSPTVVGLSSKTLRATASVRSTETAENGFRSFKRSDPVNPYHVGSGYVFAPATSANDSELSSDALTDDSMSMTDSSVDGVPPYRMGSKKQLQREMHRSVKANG
GFP-RGS^Cdt QVL (L99R Q188P V189S) (O88566, form named): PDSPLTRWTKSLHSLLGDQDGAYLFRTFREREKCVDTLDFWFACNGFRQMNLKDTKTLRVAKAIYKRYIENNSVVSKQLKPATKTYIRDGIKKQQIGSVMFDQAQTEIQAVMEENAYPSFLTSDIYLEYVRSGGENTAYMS
UniProt P04899: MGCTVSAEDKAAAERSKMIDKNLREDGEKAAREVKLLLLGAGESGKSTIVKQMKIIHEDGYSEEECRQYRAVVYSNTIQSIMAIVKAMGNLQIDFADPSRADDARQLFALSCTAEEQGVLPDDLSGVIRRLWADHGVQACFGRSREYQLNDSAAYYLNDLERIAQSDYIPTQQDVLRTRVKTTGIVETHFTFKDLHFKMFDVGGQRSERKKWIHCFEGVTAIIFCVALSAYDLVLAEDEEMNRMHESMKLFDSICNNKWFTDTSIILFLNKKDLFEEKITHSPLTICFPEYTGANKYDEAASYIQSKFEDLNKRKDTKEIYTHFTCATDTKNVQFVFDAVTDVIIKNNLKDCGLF

Tests used:
[1] = molecular target: GFP-Cdt 2-345 (UniProt O88566); test: sucrose density ultracentrifugation; lysates of transfected HEK293T cells (Triton X-100 buffer) on a linear 12.5-50% sucrose gradient, 201,000g, 16 h, 25 °C; fractions analysed by Western blotting
[2] = molecular target: GFP-Cdt 2-345 (UniProt O88566); test: native gel or EMSA; lysates of transfected HEK293T cells separated by polyacrylamide gel electrophoresis under native conditions (no SDS), Western blotting; with or without co-expressed Gαi proteins or AlF4^- treatment
[3] = molecular target: GST-RGS^Cdt (Conductin aa 67-210) (UniProt O88566); test: pull-down; in vitro synthesized Gαi2-GFP proteins incubated with purified recombinant GST-RGS^Cdt in PBS with 1% Triton X-100, 10% glycerol and 10 µM GTP; glutathione beads; Western blotting; only the target purified
[4] = molecular target: HA-Cdt 2-345 (UniProt O88566); test: native gel or EMSA; lysates of transfected HEK293T cells separated by polyacrylamide gel electrophoresis under native conditions (no SDS), Western blotting; with or without co-expressed Gαi proteins or AlF4^- treatment
[5] = molecular target: GFP-Cdt 2–345 QVL (L99R Q188P V189S) (UniProt O88566); test: sucrose density ultracentrifugation; lysates of transfected HEK293T cells (Triton X-100 buffer) on a linear 12.5-50% sucrose gradient, 201,000g, 16 h, 25 °C; fractions analysed by Western blotting
[6] = molecular target: GFP-Cdt 2–345 QVL (L99R Q188P V189S) (UniProt O88566); test: native gel or EMSA; lysates of transfected HEK293T cells separated by polyacrylamide gel electrophoresis under native conditions (no SDS), Western blotting; with or without co-expressed Gαi proteins or AlF4^- treatment
[7] = molecular target: Gαi2-GST-HA (UniProt P04899); test: pull-down; GST-tagged Gα proteins precipitated on glutathione beads from lysates of HEK293T cells co-transfected with GFP-RGS^Cdt; lysis in 1% Triton X-100 and 10% glycerol in PBS; co-precipitated GFP-RGS^Cdt quantified by Western blotting
[8] = molecular target: GST-RGS^Cdt (Conductin aa 67-210) (UniProt O88566); test: pull-down; 1 µM His-Gαi2 preloaded with 10 µM GDP, GDP + 30 µM AlCl3 and 5 mM KF, or 10 µM GTPγS, incubated with 1 µM GST proteins in TBS with 0.1% bovine serum albumin, 1 h at RT; glutathione beads; co-precipitated His-Gαi2 by Western blotting; both purified
[9] = molecular target: GST-Cdt 2-210 (UniProt O88566); test: as above
[10] = molecular target: Gαi2 G184S (UniProt P04899); test: pull-down; GST-tagged Gα proteins precipitated on glutathione beads from lysates of HEK293T cells co-transfected with GFP-RGS^Cdt; lysis in 1% Triton X-100 and 10% glycerol in PBS; co-precipitated GFP-RGS^Cdt quantified by Western blotting

Substance: GFP-Cdt 2-345 (from UniProt O88566 2-345) (domain or fragment)
binding [1]: binds
binding [2]: binds

Substance: Gαi2-GFP K210N (in vitro synthesized) (from UniProt P04899 1-355)
binding [3]: binds

Substance: GFP-Cdt 2–345 QVL (L99R Q188P V189S) (from UniProt O88566 2-345) (domain or fragment)
binding [5]: binds
binding [6]: binds

Substance: GFP-RGS^Cdt QVL (L99R Q188P V189S) (from UniProt O88566 71-211) (domain or fragment)
binding [7]: binds

Substance: RGS6xHis-Gαi2 (from UniProt P04899 1-355)
binding [8]: binds
binding [9]: binds

Substance: Gαi2-GFP G293E (in vitro synthesized) (from UniProt P04899 1-355)
binding [3]: binds

Further lines, results first:

binding [3]: binds
Substance: Gαi2-GFP T328S (in vitro synthesized) (from UniProt P04899 1-355)

binding [4]: binds
Substance: HA-Cdt 2-345 (from UniProt O88566 2-345) (domain or fragment)

binding [3]: binds
Substance: Gαi2-GFP (in vitro synthesized) (from UniProt P04899 1-355)

binding [7]: binds
binding [10]: binds
Substance: GFP-RGS^Cdt (Conductin aa 71-211) (from UniProt O88566 71-211) (domain or fragment)
